Measurements as given in patent US20030096367A1.
Results are given in words; binding and its absence hold for the method and conditions named. In cells and extracts the contact can be indirect. Some entries that bind do so weakly or less than the wild type.

Protein sequences, listed by entry. Tags and fused reporters are not part of them. Lines headed by an entry give the natural chain unless they say otherwise; changes in a name come on top.
UniProt P10415: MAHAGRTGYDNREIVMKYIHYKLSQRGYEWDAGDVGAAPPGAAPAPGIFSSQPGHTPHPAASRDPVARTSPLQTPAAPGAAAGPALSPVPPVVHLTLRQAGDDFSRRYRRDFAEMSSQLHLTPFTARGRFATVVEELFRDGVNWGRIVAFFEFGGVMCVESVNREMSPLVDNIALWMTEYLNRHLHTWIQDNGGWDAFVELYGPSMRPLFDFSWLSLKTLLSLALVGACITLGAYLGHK
UniProt Q07812: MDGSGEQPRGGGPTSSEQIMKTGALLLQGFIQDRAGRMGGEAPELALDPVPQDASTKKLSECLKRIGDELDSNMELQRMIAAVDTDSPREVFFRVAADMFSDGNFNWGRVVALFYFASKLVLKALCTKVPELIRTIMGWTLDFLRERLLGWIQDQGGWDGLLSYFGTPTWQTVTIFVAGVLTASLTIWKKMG

Legend:
[1] = molecular target: wild type human Bcl-2 (human) (UniProt P10415); assay: co-immunoprecipitation with anti human Bcl-2 moAb from RL-7 lysate, different washes (FIG. 1)
[2] = molecular target: wild type human Bcl-2 (human) (UniProt P10415); assay: co-immunoprecipitation from labeled RL-7 lysate with excess cold competitor lysate
[3] = molecular target: wild type human Bcl-2 (human) (UniProt P10415); assay: co-immunoprecipitation with 6C8 moAb from 35S-methionine-labeled RL-7 cells, 0.2% NP-40 lysate, SDS-PAGE
[4] = molecular target: wild type human Bcl-2 (human) (UniProt P10415); assay: co-immunoprecipitation from RL-7 cells (FIG. 1)

- binding [1]: binds
- binding [2]: binds
- binding [3]: binds
- binding [4]: binds
Substance: human Bax (p21, 21 kD Bcl-2 associated protein, Bax alpha) (from UniProt Q07812 1-192)
